About 3,700 (7%) of roughly 53,000 sequences were called active.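 Rule for the calls: active = gene knockdowns whose robust z-score for IL-1 alpha signal is at least 2 or at most -2, so actives lie on both sides; inactive = the rest.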 Some of the results follow.
Test: Components of the Cytosolic LPS Sensing Pathway: Gene Identification via Genome-wide siRNA Screen;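 note: robust z of the log signal after scaling to non-targeting control siRNA wells of the plate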
Conditions: RAW264.7 macrophages, IL-1a HTRF, actives lie on both sides, screened at 100 nM (by protocol), cells primed 5 h with Pam3CSK4 first
How it was run: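 RAW264.7 mouse macrophages reverse-transfected with single siRNAs (100 nM final) for 48h, primed with Pam3CSK4 for 5 hours, then transfected with LipidA for 24 hour. Supernatant IL-1a read by HTRF; values normalized to negative-control median, log-transformed robust z-scores.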

Row | Sequence | z-score
1 | GGACAGAGUUUUCAUUUUGTT against Rptn | inactive: -1.51
2 | AAAAUCGUCAGAUCAAUCATT against Olfr698 | inactive: -0.104
3 | GGCCAUCCCACAGAUUUACTT against Slain2 | inactive: -1.64
4 | GGAGCUCUCAUCCUACUAUTT against Eif4ebp3 | inactive: -0.0855
5 | GGUUUUCCGAGGUUUCAAGTT against Azgp1 | inactive: 0.812
6 | CCUGGAUAGUCGAUCCACUTT against Mesp1 | inactive: -0.545
7 | CCUAUGAGGAUAUGUGGAUTT against Adm2 | inactive: -1.66
8 | GGGAUACCUCUGAGUGACUTT against Tmem139 | inactive: 0.112
9 | GGAGUUACCUUUCGAUAGGTT against Exoc5 | inactive: 0.648
10 | GGGCAUAUUCACGAUCAAUTT against Fut2 | inactive: 1.43
11 | GGUGUGGGUUUAACUAUCUTT against Olfr686 | inactive: 1.28
12 | GGGUAUAAAUGCCAGUAAATT against Sh3pxd2a | inactive: 0.18
13 | GGGCCGUUUCCUGAAGAUCTT against Pura | inactive: -0.546
14 | GGUUUAUUUGAUGUCCACATT against Rab2b | inactive: -0.927
15 | CCCACCACUAUUUAUAUGATT against Dlg2 | inactive: -0.17
16 | GGGCUUGAAGGAAUUGACUTT against Cyp4f14 | inactive: -0.0932
17 | GGAUUUCAUCUGGUACCUGTT against Ceacam19 | inactive: -0.0176
18 | GGCUUUGGAAUGAGAGCUUTT against Dynlrb1 | active: -2.07
19 | GGGUUACCGGAAUGUUAUCTT against Tgm2 | inactive: -0.0057
20 | GGAAAUGAAUGGAAAUAGUTT against Ino80c | inactive: -0.192
21 | GCCAGUAACGACAAAGACATT against Per3 | inactive: -1.55
22 | GCCUGAAUAUUGCUAUCACTT against Gpr107 | active: 2.35
23 | GGGAAUGUUCAUACAAUAGTT against Tdp1 | inactive: 0.664
24 | GGAGAAACGAAACAAGAGUTT against Fkbp11 | inactive: 1.07
25 | GCAUUGAGGAACGACUCACTT against Ints10 | inactive: -0.0988
26 | GCCAGAAUCUGUUGUGAACTT against Gfpt1 | inactive: 0.0747
27 | GGUCUUUACAGUCCUCUACTT against Olfr71 | inactive: -0.772
28 | GGCCCAGAAAUGAUAUGGATT against Etd | inactive: 0.0627
29 | CCGAGUUUGUGUCACCACUTT against Krtcap2 | inactive: 0.17

Taken from above.
Value for GCCAGAAUCUGUUGUGAACTT against Gfpt1 under z-score: inactive: 0.0747
Value for GGUUUUCCGAGGUUUCAAGTT against Azgp1 under z-score: inactive: 0.812
